Laboratory results reported in the supplement of paper PMC3682954.
Several values for one entry are separate records, joined by “and”; a condition that tells them apart may be missing. Equal entries are not always repeated. Structures can show the parent of a compound that is named as a salt. ± gives the standard deviation of the averaged measurements. The list shows a part of the results. Single values are uncertain, as repeats are few or missing.

Tested on: RAW 264.7
Test: cell viability (MTT) relative to vehicle control; higher = more viable cells
Conditions: stimulus: HMGB1 5 ug/ml, 18 h
[1] = compound concentration: 1 ug/ml

SMILES	cell viability (compound concentration: 3 uM)	cell viability [1] [%]
COc1cnc(NS(=O)(=O)c2ccc(N)cc2)nc1	102%	–
COc1cnc(NS(=O)(=O)c2ccc(N)cc2)nc1 [Sulfameter]	112%	–
CC(C)Cc1ccc(C(C)C(=O)O)cc1 (racemic) [(±)-Ibuprofen]	92.3%	–
CC1CN(S(=O)(=O)c2cccc3cnccc23)CCN1 (stereo unspecified)	97.9%	–
CCOC(=O)C1=C[C@]2(CC)CCCN3CCc4c(n1c1ccccc41)[C@@H]32 [Vinpocetine]	103 ± 5.2%	–
Cn1c(=O)ccn([C@@H]2O[C@H](CO)[C@@H](O)[C@H]2O)c1=O [3-Methyluridine]	–	95.2
COc1ccc(-c2cc(=O)c3c(O)cc(O[C@@H]4O[C@H](CO[C@@H]5O[C@@H](C)[C@H](O)[C@@H](O)[C@H]5O)[C@@H](O)[C@H](O)[C@H]4O)cc3o2)cc1O	109%	–
C=C1C[C@]23C[C@@]1(O)CC[C@H]2[C@@]12C=C[C@H](O)[C@@](C)(C(=O)O1)[C@H]2[C@@H]3C(=O)O [Gibberellic Acid]	–	80.2
O=c1c2cc(O)c(O)cc2oc2cc(O)c([C@@H]3O[C@H](CO)[C@@H](O)[C@H](O)[C@H]3O)c(O)c12 [Mangiferin]	–	90
COc1cc(C(O)C(=O)O)ccc1O (racemic) [(±)-Vanillylmandelic acid]	106%	–
CC(=O)C(C)=O [2,3-Butanedione]	106%	–
CSc1nc(N)c2ncn([C@@H]3O[C@H](COP(=O)(O)OP(=O)(O)OP(=O)(O)O)[C@H](O)C3O)c2n1 (stereo partly specified) [2-Methylthioadenosine triphosphate tetrasodium]	92.8%	–
CN1[C@@H](CC(=O)c2ccccc2)CCC[C@H]1C[C@H](O)c1ccccc1 [Lobeline]	102%	–
CN1[C@@H](CC(=O)c2ccccc2)CCC[C@H]1C[C@H](O)c1ccccc1 [Lobeline alpha (-) hydrochoride]	112%	–
CN1[C@@H](CC(=O)c2ccccc2)CCC[C@H]1C[C@H](O)c1ccccc1 [Lobeline hydrochloride]	–	91.8
CN1[C@@H](CC(=O)c2ccccc2)CCC[C@H]1C[C@H](O)c1ccccc1	103 ± 6.3%	–
CN1[C@@H](CC(=O)c2ccccc2)CCC[C@H]1C[C@H](O)c1ccccc1 [alpha-Lobeline hydrochloride]	93%	–
OC[C@@H](O)[C@@H](O[C@@H]1O[C@H](CO)[C@H](O)[C@H](O)[C@H]1O)[C@H](O)[C@@H](O)CO	112%	–
c1ccc2[nH]c(-c3cscn3)nc2c1	104%	–
c1ccc2[nH]c(-c3cscn3)nc2c1 [Tiabendazole]	81.5%	–
NC(=O)NC(=O)Cc1ccccc1	112%	–
CC1CS(=O)(=O)CCN1/N=C/c1ccc([N+](=O)[O-])o1 (stereo unspecified) [Nifurtimox]	73.6%	–

SMILES	cell viability (compound concentration: 3 uM)	cell viability [1] [%]
Cc1ncc([N+](=O)[O-])n1CC(O)CCl (stereo unspecified)	98.8 ± 1.4%	–
Cc1ncc([N+](=O)[O-])n1CC(O)CCl (stereo unspecified) [Ornidazole]	100%	–
Cc1cc2c(c(O)c1-c1c(C)cc3c(c1O)C(=O)C(O)C3C(C)C)C(=O)C(O)C2C(C)C (stereo unspecified)	–	97.3
CN1C(C(=O)Nc2ccccn2)=C(O)c2sccc2S1(=O)=O	104%	–
CN1C(C(=O)Nc2ccccn2)=C(O)c2sccc2S1(=O)=O [Tenoxicam]	82.45 ± 0.17%	–
CN(C)c1ccc2nc3ccc(=[N+](C)C)cc-3sc2c1	105%	–
COc1cc(/C=C/C(=O)N2CCC=CC2=O)cc(OC)c1OC	–	93.6
COc1ccc(C2C(=O)c3ccccc3C2=O)cc1	109%	–
Cc1cccc(C)c1NC(=O)C1CCCCN1C (stereo unspecified) [Mepivacaine hydrochloride]	92.8%	–
Cc1cccc(C)c1NC(=O)C1CCCCN1C (stereo unspecified)	107 ± 9.3%	–
C=C[C@H]1CN2CC[C@H]1C[C@@H]2[C@@H](O)c1ccnc2ccc(OC)cc12	101%	–
C=C[C@H]1CN2CC[C@H]1C[C@@H]2[C@@H](O)c1ccnc2ccc(OC)cc12 [Quinidine sulfate]	96.5%	–
C=C[C@H]1CN2CC[C@H]1C[C@@H]2[C@@H](O)c1ccnc2ccc(OC)cc12 [Quinidine hydrochloride monohydrate]	105%	–
CNC(=O)[C@H]1O[C@@H](n2cnc3c(NCc4cccc(I)c4)ncnc32)[C@H](O)[C@@H]1O	94%	–
Cc1c(C(N)=O)cc([N+](=O)[O-])cc1[N+](=O)[O-]	104%	–
N=C(N)N	113%	–
O=C1CCC(N2C(=O)c3ccccc3C2=O)C(=O)N1 (racemic) [(±)-Thalidomide]	115%	–
C[C@]12C=CC(=O)C=C1CC[C@@H]1[C@@H]2[C@@H](O)C[C@@]2(C)[C@H]1CC[C@]2(O)C(=O)COP(=O)(O)O	121%	–
C[C@]12CC[C@H]3C(=CCc4cc(O)ccc43)[C@@H]1CCC2=O [Equilin]	92.4%	109
C[C@]12CC[C@H]3C(=CCc4cc(O)ccc43)[C@@H]1CCC2=O	110%	–
O=P(O)(O)C(Sc1ccc(Cl)cc1)P(=O)(O)O [Tiludronate disodium]	112%	–
Cc1[nH]c(=O)c(C#N)cc1-c1ccncc1	94.1%	–

SMILES	cell viability (compound concentration: 3 uM)	cell viability [1] [%]
Cc1[nH]c(=O)c(C#N)cc1-c1ccncc1 [Milrinone]	102 ± 10%	–
Cc1ccnc2c1NC(=O)c1cccnc1N2C1CC1 [Viramune]	95.3%	–
CN(C)CCC=C1c2ccccc2CCc2ccccc21 [Amitriptyline hydrochloride]	107%	–
CN(C)CCC=C1c2ccccc2CCc2ccccc21	108%	–
CN(C)CCC=C1c2ccccc2CCc2ccccc21 [Amitryptiline hydrochloride]	89.5%	–
Cn1c(=O)c2[nH]cnc2n(C)c1=O [Aminophylline]	111 ± 13%	–
Cn1c(=O)c2[nH]cnc2n(C)c1=O [Aminophylline ethylenediamine]	106%	–
CS(=O)(=O)c1ccc(C2=C(c3ccccc3)C(=O)OC2)cc1	106 ± 10%	–
CS(=O)(=O)c1ccc(C2=C(c3ccccc3)C(=O)OC2)cc1 [Rofecoxib]	98.9 ± 5.3%	–
C=C1C(=O)[C@]23[C@H](CC[C@@H]1[C@@H]2O)[C@]12CO[C@@]3(O)[C@H](O)[C@H]1C(C)(C)CC[C@@H]2O	93.1%	–
O=C(Nc1ccccc1)c1ccccc1O	104%	–
CCOc1ccc2oc(=O)c(-c3ccc(O)cc3)c(C)c2c1 [6-Ethoxy-3(4'-hydroxyphenyl)-4-methylcoumarin]	–	118
O=c1cccc2n1CC1CC2CN(CC(O)C=Nc2c3ccccc3nc3ccccc23)C1 (stereo unspecified)	–	89.1
CN(C)c1cc2c(Nc3ccc4c(cnn4Cc4ccccc4)c3)ncnc2cn1	102%	–
CCN(CC)CCOC(=O)C(c1ccccc1)C1CCCCC1 (stereo unspecified) [Drofenine hydrochloride]	117%	–
CCN(CC)CCOC(=O)C(c1ccccc1)C1CCCCC1 (stereo unspecified)	113%	–
COc1cc(-c2oc3ccccc3c(=O)c2O)cc(OC)c1OC [3-Hydroxy-3',4',5'-trimethoxyflavone]	–	99.9
COCC1=C(C(=O)OC(C)OC(=O)OC(C)C)N2C(=O)[C@@H](NC(=O)/C(=N\OC)c3csc(N)n3)[C@H]2SC1 (stereo partly specified)	103 ± 3.8%	–
OC[C@H]1O[C@@H](Oc2ccc3ccccc3c2)[C@H](O)[C@@H](O)[C@H]1O [2-Naphthyl-beta-D-galactopyranoside]	–	104
C=C1C[C@@]23CC[C@H]4[C@@](C)(CCC[C@@]4(C)C(=O)O[C@@H]4O[C@H](CO)[C@@H](O)[C@H](O)[C@H]4O)[C@@H]2CC[C@]1(O[C@@H]1O[C@H](CO)[C@@H](O)[C@H](O)[C@H]1O[C@@H]1O[C@H](CO)[C@@H](O)[C@H](O)[C@H]1O)C3 [Stevioside]	92.5%	–
CC(C)(C)OC(=O)c1cc2cc3c4c(c2oc1=O)CCCN4CCC3 [Coumarin 338]	–	91
COc1cc(Cc2cnc(N)nc2N)cc(OC)c1OC	109%	–

23 entries from above, bar-delimited.
SMILES | cell viability (compound concentration: 3 uM) | cell viability [1] [%]
CC(C)Cc1ccc(C(C)C(=O)O)cc1 (racemic) [(±)-Ibuprofen] | 92.3% | –
CC1CN(S(=O)(=O)c2cccc3cnccc23)CCN1 (stereo unspecified) | 97.9% | –
Cn1c(=O)ccn([C@@H]2O[C@H](CO)[C@@H](O)[C@H]2O)c1=O [3-Methyluridine] | – | 95.2
COc1ccc(-c2cc(=O)c3c(O)cc(O[C@@H]4O[C@H](CO[C@@H]5O[C@@H](C)[C@H](O)[C@@H](O)[C@H]5O)[C@@H](O)[C@H](O)[C@H]4O)cc3o2)cc1O | 109% | –
COc1cc(C(O)C(=O)O)ccc1O (racemic) [(±)-Vanillylmandelic acid] | 106% | –
CN1[C@@H](CC(=O)c2ccccc2)CCC[C@H]1C[C@H](O)c1ccccc1 [Lobeline] | 102% | –
CN1[C@@H](CC(=O)c2ccccc2)CCC[C@H]1C[C@H](O)c1ccccc1 [Lobeline hydrochloride] | – | 91.8
c1ccc2[nH]c(-c3cscn3)nc2c1 | 104% | –
c1ccc2[nH]c(-c3cscn3)nc2c1 [Tiabendazole] | 81.5% | –
NC(=O)NC(=O)Cc1ccccc1 | 112% | –
CN(C)c1ccc2nc3ccc(=[N+](C)C)cc-3sc2c1 | 105% | –
COc1ccc(C2C(=O)c3ccccc3C2=O)cc1 | 109% | –
C=C[C@H]1CN2CC[C@H]1C[C@@H]2[C@@H](O)c1ccnc2ccc(OC)cc12 | 101% | –
Cc1c(C(N)=O)cc([N+](=O)[O-])cc1[N+](=O)[O-] | 104% | –
C[C@]12C=CC(=O)C=C1CC[C@@H]1[C@@H]2[C@@H](O)C[C@@]2(C)[C@H]1CC[C@]2(O)C(=O)COP(=O)(O)O | 121% | –
O=P(O)(O)C(Sc1ccc(Cl)cc1)P(=O)(O)O [Tiludronate disodium] | 112% | –
Cc1[nH]c(=O)c(C#N)cc1-c1ccncc1 | 94.1% | –
CN(C)CCC=C1c2ccccc2CCc2ccccc21 [Amitryptiline hydrochloride] | 89.5% | –
O=c1cccc2n1CC1CC2CN(CC(O)C=Nc2c3ccccc3nc3ccccc23)C1 (stereo unspecified) | – | 89.1
CCN(CC)CCOC(=O)C(c1ccccc1)C1CCCCC1 (stereo unspecified) [Drofenine hydrochloride] | 117% | –
CCN(CC)CCOC(=O)C(c1ccccc1)C1CCCCC1 (stereo unspecified) | 113% | –
COc1cc(-c2oc3ccccc3c(=O)c2O)cc(OC)c1OC [3-Hydroxy-3',4',5'-trimethoxyflavone] | – | 99.9
OC[C@H]1O[C@@H](Oc2ccc3ccccc3c2)[C@H](O)[C@@H](O)[C@H]1O [2-Naphthyl-beta-D-galactopyranoside] | – | 104

Later entries

SMILES	cell viability (compound concentration: 3 uM)	cell viability [1] [%]
COc1cc(Cc2cnc(N)nc2N)cc(OC)c1OC [Trimethoprim]	108 ± 9.4%	–
NC(=O)C(=O)O [Sodium Oxamate]	103%	–
CO[C@@]1(NC(=O)Cc2cccs2)C(=O)N2C(C(=O)O)=C(COC(N)=O)CS[C@@H]21	107%	–
CO[C@@]1(NC(=O)Cc2cccs2)C(=O)N2C(C(=O)O)=C(COC(N)=O)CS[C@@H]21 [Cefoxitin sodium salt]	74.6%	–
CC(=O)c1ccc2c(c1)N(CCCN1CCC(CCO)CC1)c1ccccc1S2 [Piperacetazine]	92.5%	–
CCc1cc(=O)oc2cc(OC)c(OC)cc12 [6,7-Dimethoxy-4-ethylcoumarin]	–	94.7
CC1CCC(C(C)C)C(O)C1 (stereo unspecified)	103%	–
CNCC[C@H](Oc1cccc2ccccc12)c1cccs1	106% and 93%	–
CNCC[C@H](Oc1cccc2ccccc12)c1cccs1 [Duloxetine]	91.8%	–
O=C(CCCN1CCC(O)(c2ccc(Br)cc2)CC1)c1ccc(F)cc1 [Bromperidol]	85.4%	–
O=C(CCCN1CCC(O)(c2ccc(Br)cc2)CC1)c1ccc(F)cc1	84.6%	–
COc1cc2c(cc1OC)C(=O)C(CC1CCN(Cc3ccccc3)CC1)C2 (stereo unspecified) [Donepezil]	98.3%	–
COc1cc2c(cc1OC)C(=O)C(CC1CCN(Cc3ccccc3)CC1)C2 (stereo unspecified)	102%	–
CCCCC(CC)CN1CN(CC(CC)CCCC)CC(C)(N)C1 (stereo unspecified) [Hexetidine]	92.5%	–
CCCCC(CC)CN1CN(CC(CC)CCCC)CC(C)(N)C1 (stereo unspecified)	106%	–
NC(N)=NCc1cccc(I)c1 [m-Iodobenzylguanidine hemisulfate]	111%	–
NS(=O)(=O)c1cccc2c1c([N+](=O)[O-])cc1nc(O)c(O)nc12 [NBQX disodium]	101%	–
N#CC(=C(/N)Sc1ccccc1N)/C(C#N)=C(/N)Sc1ccccc1N	91.6%	–
CC(C)(C)C(=O)OCOC(=O)[C@@H]1N2C(=O)[C@@H](NC(=O)[C@H](N)c3ccccc3)[C@H]2SC1(C)C [Pivampicillin]	110%	–
